Consider one molecule from PMC8014998.

Amino acid sequences for entries named in this document (tags omitted). Residues count along the entry.
UniProt O88696, residues 53-272: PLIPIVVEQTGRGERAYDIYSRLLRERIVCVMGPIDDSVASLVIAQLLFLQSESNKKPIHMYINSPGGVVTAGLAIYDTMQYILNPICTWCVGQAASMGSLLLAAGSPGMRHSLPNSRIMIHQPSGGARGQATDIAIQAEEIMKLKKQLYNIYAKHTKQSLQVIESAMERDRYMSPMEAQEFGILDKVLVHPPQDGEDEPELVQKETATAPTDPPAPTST

No constants are given. Whether binding was seen depends on the method and setting. Binding seen in cells or lysates may run through a third protein. A yes stands for co-enrichment or nearness to the bait. Other partners may have been found.

The target of this test is CLPP-WT-FLAG (UniProt O88696). The test can be described thus: affinity purification with mass spectrometry; substrate trapping: CLPP-WT-FLAG, CLPP-TRAP-FLAG or empty vector (NEG) expressed in three Clpp-/- MEF lines; whole cell lysates in IP buffer with anti-FLAG magnetic beads over night at 4 °C; 4 washes; eluates by label-free LC-MS; multi-sample ANOVA, FDR <0.05.

B1: C1QBP/P32 (protein, UniProt O35658 71-278)
chain: LHTEGDKAFVEFLTDEIKEEKKIQKHKSLPKMSGDWELEVNGTEAKLLRKVAGEKITVTFNINNSIPPTFDGEEEPSQGQKAEEQEPERTSTPNFVVEVTKTDGKKTLVLDCHYPEDEIGHEDEAESDIFSIKEVSFQATGDSEWRDTNYTLNTDSLDWALYDHLMDFLADRGVDNTFADELVELSTALEHQEYITFLEDLKSFVKNQ
On to B1, for which the binding result was “binds”.
